Measured values taken from publication PMC11194109.
Construct, isoform or probe ends are uncertain for at least one entry. A weaker result is weaker than the reference pair of the same experiment.

Amino acid sequences for entries named in this document (tags omitted). Residues count along the entry.
UniProt Q9GZC8, 18-776 K193A/K198A: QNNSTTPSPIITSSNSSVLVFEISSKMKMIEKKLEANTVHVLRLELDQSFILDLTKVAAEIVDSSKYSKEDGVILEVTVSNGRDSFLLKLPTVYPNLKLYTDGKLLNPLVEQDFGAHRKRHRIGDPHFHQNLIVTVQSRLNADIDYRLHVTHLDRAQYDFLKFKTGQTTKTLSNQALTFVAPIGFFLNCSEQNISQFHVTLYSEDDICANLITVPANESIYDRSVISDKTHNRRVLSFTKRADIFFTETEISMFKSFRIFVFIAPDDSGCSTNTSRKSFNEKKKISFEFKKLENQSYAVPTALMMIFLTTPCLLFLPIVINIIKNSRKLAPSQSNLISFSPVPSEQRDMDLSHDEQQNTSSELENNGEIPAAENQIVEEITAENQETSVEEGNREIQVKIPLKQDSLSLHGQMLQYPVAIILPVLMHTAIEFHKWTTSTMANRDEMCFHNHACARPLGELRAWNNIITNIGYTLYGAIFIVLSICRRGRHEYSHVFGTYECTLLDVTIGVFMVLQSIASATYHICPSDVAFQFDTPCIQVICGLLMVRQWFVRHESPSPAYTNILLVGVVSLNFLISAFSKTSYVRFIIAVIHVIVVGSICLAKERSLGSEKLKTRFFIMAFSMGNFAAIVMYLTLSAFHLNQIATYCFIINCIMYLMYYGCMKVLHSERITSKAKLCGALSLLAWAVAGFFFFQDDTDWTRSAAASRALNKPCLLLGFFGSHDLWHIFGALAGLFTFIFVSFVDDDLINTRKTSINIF
UniProt Q9GZC8, 18-776 K43A/K45A: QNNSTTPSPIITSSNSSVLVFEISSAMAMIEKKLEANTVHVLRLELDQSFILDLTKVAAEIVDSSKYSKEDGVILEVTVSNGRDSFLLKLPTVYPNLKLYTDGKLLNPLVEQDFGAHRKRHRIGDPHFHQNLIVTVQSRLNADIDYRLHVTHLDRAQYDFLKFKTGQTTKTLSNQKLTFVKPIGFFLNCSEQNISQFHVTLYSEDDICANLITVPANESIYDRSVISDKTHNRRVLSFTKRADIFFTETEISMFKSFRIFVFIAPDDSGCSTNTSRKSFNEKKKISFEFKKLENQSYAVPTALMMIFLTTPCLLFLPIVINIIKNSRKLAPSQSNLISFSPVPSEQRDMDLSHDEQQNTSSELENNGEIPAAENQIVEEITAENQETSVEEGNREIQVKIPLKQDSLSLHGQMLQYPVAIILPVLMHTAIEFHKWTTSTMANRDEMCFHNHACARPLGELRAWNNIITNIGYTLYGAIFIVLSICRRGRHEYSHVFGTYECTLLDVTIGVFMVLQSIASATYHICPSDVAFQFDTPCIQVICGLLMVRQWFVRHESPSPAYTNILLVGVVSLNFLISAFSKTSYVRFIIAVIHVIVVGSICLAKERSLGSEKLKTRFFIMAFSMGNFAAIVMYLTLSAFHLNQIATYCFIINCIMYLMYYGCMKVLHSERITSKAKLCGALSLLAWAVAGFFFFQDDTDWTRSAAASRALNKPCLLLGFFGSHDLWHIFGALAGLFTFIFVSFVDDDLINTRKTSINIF

Key:
[1] = target: cSID1 K193A + K198A (Caenorhabditis elegans) (UniProt Q9GZC8); assay: EMSA; settings: 0-24 uM protein, 1 uM dsRNA, binding almost completely eliminated; EMSA: 25 mM Tris pH 8.0, 25 mM NaCl, room temperature, 60 min, 6% native gel in 0.5x TBE; recombinant protein; protein details: His6 and FLAG after the signal peptide
[2] = target: cSID1 K43A + K45A (Caenorhabditis elegans) (UniProt Q9GZC8); assay: EMSA; settings: 0-24 uM protein, 1 uM dsRNA, binding almost completely eliminated; EMSA: 25 mM Tris pH 8.0, 25 mM NaCl, room temperature, 60 min, 6% native gel in 0.5x TBE; recombinant protein; protein details: His6 and FLAG after the signal peptide

What does the source list for “GGCCGGGGGACGGGCUGGGAUGACAGAAGUCGCUUGGUGCAGAUCGGGAC / GUCCCGAUCUGCACCAAGCGACUUCUGUCAUCCCAGCCCGUCCCCCGGCC [FAM 50-bp dsRNA]”?
binding result [1]: binds more weakly; binding result [2]: binds more weakly
